Source: PMC10942257

Chains of the proteins cited; added tags and fusions are not shown. Lines headed by an entry give the natural chain unless they say otherwise; changes in a name come on top.
UniProt Q9LHS9: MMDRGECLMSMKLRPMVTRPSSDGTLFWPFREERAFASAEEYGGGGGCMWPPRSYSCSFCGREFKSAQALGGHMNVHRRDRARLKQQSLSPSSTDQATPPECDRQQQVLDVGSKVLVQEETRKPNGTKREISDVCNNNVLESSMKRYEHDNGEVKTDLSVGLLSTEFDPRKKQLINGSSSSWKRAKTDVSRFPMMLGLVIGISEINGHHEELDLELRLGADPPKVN

Key:
[1] = target: RBE with point mutations in the EAR motif (mRBE), yeast two-hybrid fusion (Arabidopsis thaliana) (UniProt Q9LHS9); test: two-hybrid; Gal4 system, pGADT7 (prey) and pGBKT7-GW (bait) co-transformed into Y2H Gold yeast; DDO (SD-Leu-Trp) to select, QDO to analyze interactions; repeated three times
[2] = target: YFPn-mRBE (RBE with point mutations in the EAR motif) (Arabidopsis thaliana) (UniProt Q9LHS9); test: split reporter; BiFC with YFPn and YFPc fusions (pEarleyGate202-YN, pEarleyGate201-YC) co-infiltrated by Agrobacterium into N. benthamiana leaves with P19; confocal imaging 48h after infiltration

binding [1] | binding [2] | Binder
no binding | – | TOPLESS (TPL), yeast two-hybrid fusion (protein, UniProt Q94AI7 1-1131) MSSLSRELVFLILQFLDEEKFKETVHKLEQESGFFFNMKYFEDEVHNGNWDEVEKYLSGFTKVDDNRYSMKIFFEIRKQKYLEALDKHDRPKAVDILVKDLKVFSTFNEELFKEITQLLTLENFRENEQLSKYGDTKSARAIMLVELKKLIEANPLFRDKLQFPTLRNSRLRTLINQSLNWQHQLCKNPRPNPDIKTLFVDHSCGPPNGARAPSPVNNPLLGGIPKAGGFPPLGAHGPFQPTASPVPTPLAGWMSSPSSVPHPAVSAGAIALGGPSIPAALKHPRTPPTNASLDYPSADSEHVSKRTRPMGISDEVNLGVNMLPMSFSGQAHGHSPAFKAPDDLPKTVARTLSQGSSPMSMDFHPIKQTLLLVGTNVGDIGLWEVGSRERLVQKTFKVWDLSKCSMPLQAALVKEPVVSVNRVIWSPDGSLFGVAYSRHIVQLYSYHGGEDMRQHLEIDAHVGGVNDISFSTPNKQLCVITCGDDKTIKVWDAATGVKRHTFEGHEAPVYSVCPHYKENIQFIFSTALDGKIKAWLYDNMGSRVDYDAPGRWCTTMAYSADGTRLFSCGTSKDGESFIVEWNESEGAVKRTYQGFHKRSLGVVQFDTTKNRYLAAGDDFSIKFWDMDAVQLLTAIDGDGGLQASPRIRFNKEGSLLAVSGNENVIKIMANSDGLRLLHTFENISSESSKPAINSIAAAAAAAATSAGHADRSANVVSIQGMNGDSRNMVDVKPVITEESNDKSKIWKLTEVSEPSQCRSLRLPENLRVAKISRLIFTNSGNAILALASNAIHLLWKWQRNERNATGKATASLPPQQWQPASGILMTNDVAETNPEEAVPCFALSKNDSYVMSASGGKISLFNMMTFKTMATFMPPPPAATFLAFHPQDNNIIAIGMDDSTIQIYNVRVDEVKSKLKGHSKRITGLAFSNVLNVLVSSGADAQLCVWNTDGWEKQRSKVLPLPQGRPNSAPSDTRVQFHQDQAHFLVVHETQLAIYETTKLECMKQWAVRESLAPITHATFSCDSQLVYASFMDATVCVFSSANLRLRCRVNPSAYLPASLSNSNVHPLVIAAHPQEPNMFAVGLSDGGVHIFEPLESEGKWGVAPPAENGSASGAPTAPSVGASASDQPQR
– | no binding | YFPc-TPL (protein, UniProt Q94AI7 1-1131) MSSLSRELVFLILQFLDEEKFKETVHKLEQESGFFFNMKYFEDEVHNGNWDEVEKYLSGFTKVDDNRYSMKIFFEIRKQKYLEALDKHDRPKAVDILVKDLKVFSTFNEELFKEITQLLTLENFRENEQLSKYGDTKSARAIMLVELKKLIEANPLFRDKLQFPTLRNSRLRTLINQSLNWQHQLCKNPRPNPDIKTLFVDHSCGPPNGARAPSPVNNPLLGGIPKAGGFPPLGAHGPFQPTASPVPTPLAGWMSSPSSVPHPAVSAGAIALGGPSIPAALKHPRTPPTNASLDYPSADSEHVSKRTRPMGISDEVNLGVNMLPMSFSGQAHGHSPAFKAPDDLPKTVARTLSQGSSPMSMDFHPIKQTLLLVGTNVGDIGLWEVGSRERLVQKTFKVWDLSKCSMPLQAALVKEPVVSVNRVIWSPDGSLFGVAYSRHIVQLYSYHGGEDMRQHLEIDAHVGGVNDISFSTPNKQLCVITCGDDKTIKVWDAATGVKRHTFEGHEAPVYSVCPHYKENIQFIFSTALDGKIKAWLYDNMGSRVDYDAPGRWCTTMAYSADGTRLFSCGTSKDGESFIVEWNESEGAVKRTYQGFHKRSLGVVQFDTTKNRYLAAGDDFSIKFWDMDAVQLLTAIDGDGGLQASPRIRFNKEGSLLAVSGNENVIKIMANSDGLRLLHTFENISSESSKPAINSIAAAAAAAATSAGHADRSANVVSIQGMNGDSRNMVDVKPVITEESNDKSKIWKLTEVSEPSQCRSLRLPENLRVAKISRLIFTNSGNAILALASNAIHLLWKWQRNERNATGKATASLPPQQWQPASGILMTNDVAETNPEEAVPCFALSKNDSYVMSASGGKISLFNMMTFKTMATFMPPPPAATFLAFHPQDNNIIAIGMDDSTIQIYNVRVDEVKSKLKGHSKRITGLAFSNVLNVLVSSGADAQLCVWNTDGWEKQRSKVLPLPQGRPNSAPSDTRVQFHQDQAHFLVVHETQLAIYETTKLECMKQWAVRESLAPITHATFSCDSQLVYASFMDATVCVFSSANLRLRCRVNPSAYLPASLSNSNVHPLVIAAHPQEPNMFAVGLSDGGVHIFEPLESEGKWGVAPPAENGSASGAPTAPSVGASASDQPQR
– | no binding | YFPc-HDA19 (enzyme, UniProt O22446 1-501) MDTGGNSLASGPDGVKRKVCYFYDPEVGNYYYGQGHPMKPHRIRMTHALLAHYGLLQHMQVLKPFPARDRDLCRFHADDYVSFLRSITPETQQDQIRQLKRFNVGEDCPVFDGLYSFCQTYAGGSVGGSVKLNHGLCDIAINWAGGLHHAKKCEASGFCYVNDIVLAILELLKQHERVLYVDIDIHHGDGVEEAFYATDRVMTVSFHKFGDYFPGTGHIQDIGYGSGKYYSLNVPLDDGIDDESYHLLFKPIMGKVMEIFRPGAVVLQCGADSLSGDRLGCFNLSIKGHAECVKFMRSFNVPLLLLGGGGYTIRNVARCWCYETGVALGVEVEDKMPEHEYYEYFGPDYTLHVAPSNMENKNSRQMLEEIRNDLLHNLSKLQHAPSVPFQERPPDTETPEVDEDQEDGDKRWDPDSDMDVDDDRKPIPSRVKREAVEPDTKDKDGLKGIMERGKGCEVEVDESGSTKVTGVNPVGVEEASVKMEEEGTNKGGAEQAFPPKT

Results are given in words; binding and its absence hold for the method and conditions named. For part of these data: In cells and extracts the contact can be indirect. For part of these data: Tags and fused reporters may be left off the sequences shown.
